Measurements taken from patent US7153535B2, “Protein sweetener” (Wisconsin Alumni Research Foundation, priority 2002, dated 2006).

Test system: humans
Experiment: human panel sweetness scoring on a labeled magnitude scale
Assay type: in vivo
Details: 100 ug/ml of the protein in water
Protocol: To test the sweetness potency of SEQ ID NOS. 3 and 5, we tested the perception of sweetness using a concentration of 100 ug/ml of the protein in water. One test panel consisted of monkeys. The other test panel was of humans. The response measured in the monkeys was level of activity of taste nerve fibers during the stimulation of the tongue with different compounds being tested. Humans were requested to score the sweetness sensations of the stimuli with a magnitude labeled scale in accordance with the techniques of B. Green et al., 21 Chemical Senses 323 (1996) (e.g. barely detectable; weak; moderate; strong; very strong; strongest imaginable).

Substance | taste as reported by human panel | taste quality indicated by human panel
D29N: Brazzein variant in which the Asp at position 29 is replaced with Asn (DKCKKVYENYPVSKCQLANQCNYDCKLNKHARSGECFYDEKRNLQCICDYCEY) | clean and pleasant | purely sweet without detectable sourness, saltiness or bitterness
D29K: Brazzein variant in which the Asp at position 29 is replaced with Lys (DKCKKVYENYPVSKCQLANQCNYDCKLKKHARSGECFYDEKRNLQCICDYCEY) | clean and pleasant | purely sweet without detectable sourness, saltiness or bitterness
